Consider one compound from patent publication US20210038547A1, “NEW USES AND APPLICATIONS OF DICARBOXYLIC ACIDS” (JEMYLL LIMITED, priority 2017, published 2021).

The structures appear in SMILES notation.

The subject of the series is oat. The series is described as follows: Hydroponic oat grown with C12 in the water medium: grain composition. How it is done:
Hydroponic barley and oat grass was growth in fodder sprouting chambers at 21.5 to 23.5° C., with humidity of 65±5% and water temperature between 20° and 22° C. Grains were soaked in water until fully saturated, then drained and placed in trays or troughs, to facilitate sprouting, for 5 to 8 days. The grains were kept moist during this period. Grains were initially washed with a sterilizing solution to help minimize the risk of mold. Grass were provided with […] from day 3. C12 (0.1% as acid, 14.9% as potassium salt, 60% as sodium salt, and 25% as calcium salt) was added to the water medium in different concentrations, varying from 0%, to 2.5%, 5%, 10%, 15% and 20%. We measured grain composition at 10 g C12 in 1 L of water.

As to `O=C(O)CCCCCCCCCCC(=O)O` [C12, dodecanedioic acid], for the setting “content in oat grain, 10 g C12/L of water (10% C12)”, the C12% is 3.12 ± 0.47%. Moreover, the “C12 in the water at which the concentration of C12 in oat grains plateaus” value (increasing C12 in irrigation water, FIG. 4) turned out to be 10 g/L.
